This is an account of results in the supplement of paper PMC10338343.

± gives the standard deviation. This is a selection; strong and weak results do not stand in their true shares. The uncertainty is large for many entries.

This test deals with MIWI (PIWIL1) piRISC loaded with L1MC piRNA (30 nt). The test is described as follows: pre-steady-state target cleavage rate (min^-1); MIWI and MILI are mouse PIWI proteins and EfPiwi is from a freshwater sponge; tags in brackets are library labels; higher = faster piRNA-guided slicing of the target. The following applies: guide: L1MC piRNA 5'p-UAACUAAAUACUAUGCAAGCUGUAGGUCCU; auxiliary factor: none (no GTSF1). The method in brief: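 The pre-steady-state cleavage rate was obtained by Cleave-'n-Seq with a burst-and-steady-state fit. A transcribed, DNA-blocked target RNA library (0.1 nM) was mixed with 1 nM active affinity-purified piRISC carrying one synthetic guide, with or without 500 nM GTSF1 partner protein, in HEPES–potassium acetate buffer at 33 °C for 0–8 or 0–960 min. Uncleaved targets were sequenced and normalised to depth and to weakly complementary targets, with three trials pooled and k3 capped at 0.0001 min^-1.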
Turning to UCCACCUACAGCUUGCAUAGAUAUUAGAAA, the “pre-steady-state target cleavage rate” value is 0.000672 ± 0.01.
As to “AGGACCUACAGCUUGCAUACAUAAAUCAAA [g12:g30:cont:t1A]”, the “pre-steady-state target cleavage rate” value was 0.000259 ± 0.015.
On to UCCUGGAUGUCGAACGUAUAUAUUUAGUUA, for which the “pre-steady-state target cleavage rate” value came to 0.000348 ± 0.017.
In the case of UCGACCUACAGCUUGCAUAGCUAUUUAGUUA, the “pre-steady-state target cleavage rate” value came to 0.00227 ± 0.0041.
The figure for UCCUGGAUGUCGAACGUAACUAAUUAGUUA is 0.000112 ± 0.038; for UCGACCUACAGCUUCCAUAGUAUUAAGUUA it is 0.00124 ± 0.0057; for UCCACCUACAGCUUGCUAAGUAUUUACAAA it is 0.000243 ± 0.012.
The figure for UCCACCUACACGUUGCAUAGUAUUUAGAAA is 0.000486 ± 0.0054.
As to UGGACCUACAGCUUGCAUUCAAUUUAGUUA, the “pre-steady-state target cleavage rate” value is 0.00107 ± 0.004.
For UGGACCUACAGGAAGCAUAGUAUUUAGAAA, the “pre-steady-state target cleavage rate” value was 0.00129 ± 0.0054.
The figure for AGGACCUACAGCUUGCAUAUGUAUUUAGUUA is 0.000812 ± 0.011; for UCCUGGAUGUCGAACGAUAGUAUUUAUGUUA it is 0.000188 ± 0.037; for UCCACCUACAGCUUGCAUAGUUUUAGUUA it is 0.000951 ± 0.0071.
For UCCUGGAUGUCGAACGAUAGUUAAUAGUUA, the “pre-steady-state target cleavage rate” value is 0.00017 ± 0.021.
The figure for UCGACCUACAGCUUGGUAAGUAUUUAGUUA is 0.000843 ± 0.0058; for UCCACCUACAGCAUCCAUAGUAUUUAGUUA it is 0.00106 ± 0.0038.
As for UCCACCUUCAGCUUGCAUAGUAUUUUCAAA, the “pre-steady-state target cleavage rate” value worked out at 0.00179 ± 0.0025.
Take AGGACCUACAGCUUGCAUAGGUAUUUAGUUA: the “pre-steady-state target cleavage rate” value turned out to be 0.00139 ± 0.0063.
As to UCCUGGAACAGGUUGCAUAGUAUUUAGAAA, the “pre-steady-state target cleavage rate” value amounted to 0.00224 ± 0.0029.
With AGGACCUACAGCUUGCUAUGUAUUUACAAA, the “pre-steady-state target cleavage rate” value was 0.00051 ± 0.01.
For the sequence UCCUGGAUGUCGAACGAUUGUAUUUAGUAA, the “pre-steady-state target cleavage rate” value came out at 0.000134 ± 0.026.
For the sequence AGGACCUACAGCUUGGUAAGUAUUUACAAA, the “pre-steady-state target cleavage rate” value was 0.000196 ± 0.016.
With UCCUGGAUGUCGUUCCAAAGUAUUUAGUUA, the “pre-steady-state target cleavage rate” value was found to be 0.000383 ± 0.012.
For UCCACCUACAGCAACCAUAGUAUUUAGUUA, the “pre-steady-state target cleavage rate” value worked out at 0.00074 ± 0.0058.
The value for UCCACCUACAGGAUGCAUAGUAUUUACAAA was 0.000795 ± 0.0072; that for UGGACCUACAGCUUCGAUAGUAUUUAGUUA was 0.00226 ± 0.0028; that for UCGACCUACAGCUUGCAUUCAAUUUUCAAA was 0.000654 ± 0.013.
As for UGGACCUACAGCUUGCAGUAGUAUUUAGUUA, the “pre-steady-state target cleavage rate” value came to 0.000705 ± 0.0069.
For UCCACCUACAGCUUCCAUAGUAUUUAGUUA, the “pre-steady-state target cleavage rate” value was found to be 0.00286 ± 0.003.
Take UCCUGGAUGUCGAACGAUAGUAUUAUGUUA: the “pre-steady-state target cleavage rate” value turned out to be 0.000178 ± 0.028.
The value for UCCUGGAUGUCGAACGUUAGUUAUUUAGUUA was 0.000459 ± 0.016.
The value for UCCACCUACAGCUUGCAUAGAUAUUUCAAA was 0.000238 ± 0.012; that for UCGACCUACAGCUUCGUUAGUAUUUAGUUA was 0.000866 ± 0.0034; that for UCGACCUACAGCUUGCAUAUAUUUAGUUA was 0.00277 ± 0.003.
For the sequence UGGUGCUACAGCUUGCAUAGUAUUUACAAA, the “pre-steady-state target cleavage rate” value is 0.00255 ± 0.0029.
For UCGACCUACAGCUACGAUAGUAUUUUCAAA, the “pre-steady-state target cleavage rate” value was determined as 0.000498 ± 0.013.
Take UCCUGGAUCACCAUGCAUAGUAUUUAGUUA: the “pre-steady-state target cleavage rate” value was 0.00191 ± 0.0031.
The value for UCCUGGAUGUCGUUGCAUAGUAAAUAGUUA was 0.00111 ± 0.0079; that for UCCACCUACAGCUUGCAAUCUAUUUUCAAA was 0.000499 ± 0.013.
